Assay results reported in publication PMC8007567.
No constants are given. Whether binding was seen depends on the method and setting. In cells and extracts the contact can be indirect. Some results given as binding are weak or reduced against the parent protein; the word gives no strength.

Protein sequences, listed by entry. Tags and fused reporters are not part of them. Lines headed by an entry give the natural chain unless they say otherwise; changes in a name come on top. Chains listed by the source or under a name are the forms on record and can include a tag or linker. Residues count along the entry.
UniProt Q05639: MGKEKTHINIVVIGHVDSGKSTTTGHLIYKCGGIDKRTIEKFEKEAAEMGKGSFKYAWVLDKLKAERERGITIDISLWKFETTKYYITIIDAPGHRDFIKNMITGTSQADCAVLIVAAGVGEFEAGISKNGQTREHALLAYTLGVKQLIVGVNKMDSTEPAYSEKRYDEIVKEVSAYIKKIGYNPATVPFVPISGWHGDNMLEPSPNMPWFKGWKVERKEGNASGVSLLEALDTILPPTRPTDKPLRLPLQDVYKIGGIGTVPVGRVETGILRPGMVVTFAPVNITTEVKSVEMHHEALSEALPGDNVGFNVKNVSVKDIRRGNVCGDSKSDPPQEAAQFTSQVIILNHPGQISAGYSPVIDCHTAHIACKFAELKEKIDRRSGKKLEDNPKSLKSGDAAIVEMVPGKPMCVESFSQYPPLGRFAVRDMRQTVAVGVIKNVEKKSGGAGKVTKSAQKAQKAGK
Flag-tagged EEF1A2 domain I (1–240 aa): residues 1-240 of Q05639
UniProt P12956: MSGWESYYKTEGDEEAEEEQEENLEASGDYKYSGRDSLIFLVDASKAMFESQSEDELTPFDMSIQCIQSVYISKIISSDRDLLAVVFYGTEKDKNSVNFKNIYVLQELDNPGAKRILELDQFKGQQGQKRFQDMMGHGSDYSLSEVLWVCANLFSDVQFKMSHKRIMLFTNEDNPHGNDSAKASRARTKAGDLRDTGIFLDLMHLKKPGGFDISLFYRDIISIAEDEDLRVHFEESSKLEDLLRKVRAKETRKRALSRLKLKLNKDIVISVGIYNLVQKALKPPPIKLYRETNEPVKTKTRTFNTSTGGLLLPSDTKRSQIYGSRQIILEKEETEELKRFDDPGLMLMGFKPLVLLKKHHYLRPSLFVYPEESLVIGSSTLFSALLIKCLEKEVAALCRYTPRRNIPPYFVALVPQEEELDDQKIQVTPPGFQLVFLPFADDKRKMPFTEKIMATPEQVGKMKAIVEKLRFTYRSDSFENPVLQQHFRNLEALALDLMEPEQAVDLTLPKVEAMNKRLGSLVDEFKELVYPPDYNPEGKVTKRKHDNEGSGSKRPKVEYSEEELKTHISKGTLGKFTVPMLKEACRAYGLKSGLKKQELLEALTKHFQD
UniProt P08238: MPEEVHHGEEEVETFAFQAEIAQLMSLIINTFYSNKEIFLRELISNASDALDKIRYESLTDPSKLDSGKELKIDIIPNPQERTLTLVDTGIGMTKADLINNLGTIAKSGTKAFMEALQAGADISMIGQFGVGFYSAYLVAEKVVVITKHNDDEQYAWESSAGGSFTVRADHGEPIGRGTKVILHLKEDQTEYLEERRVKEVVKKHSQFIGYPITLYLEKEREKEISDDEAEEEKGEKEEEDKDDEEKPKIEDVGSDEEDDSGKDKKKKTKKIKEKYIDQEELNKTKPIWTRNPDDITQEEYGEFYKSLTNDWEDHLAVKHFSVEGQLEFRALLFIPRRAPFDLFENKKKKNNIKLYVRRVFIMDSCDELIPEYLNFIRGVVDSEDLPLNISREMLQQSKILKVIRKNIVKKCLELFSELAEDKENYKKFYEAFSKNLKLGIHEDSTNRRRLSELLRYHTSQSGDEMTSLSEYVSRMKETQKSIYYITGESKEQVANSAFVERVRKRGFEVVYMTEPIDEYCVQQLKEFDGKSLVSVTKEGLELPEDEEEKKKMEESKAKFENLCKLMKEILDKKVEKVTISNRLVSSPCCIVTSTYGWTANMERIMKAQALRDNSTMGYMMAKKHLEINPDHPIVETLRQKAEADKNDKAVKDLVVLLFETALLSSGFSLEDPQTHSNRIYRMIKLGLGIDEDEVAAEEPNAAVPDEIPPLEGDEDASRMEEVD
UniProt P26641: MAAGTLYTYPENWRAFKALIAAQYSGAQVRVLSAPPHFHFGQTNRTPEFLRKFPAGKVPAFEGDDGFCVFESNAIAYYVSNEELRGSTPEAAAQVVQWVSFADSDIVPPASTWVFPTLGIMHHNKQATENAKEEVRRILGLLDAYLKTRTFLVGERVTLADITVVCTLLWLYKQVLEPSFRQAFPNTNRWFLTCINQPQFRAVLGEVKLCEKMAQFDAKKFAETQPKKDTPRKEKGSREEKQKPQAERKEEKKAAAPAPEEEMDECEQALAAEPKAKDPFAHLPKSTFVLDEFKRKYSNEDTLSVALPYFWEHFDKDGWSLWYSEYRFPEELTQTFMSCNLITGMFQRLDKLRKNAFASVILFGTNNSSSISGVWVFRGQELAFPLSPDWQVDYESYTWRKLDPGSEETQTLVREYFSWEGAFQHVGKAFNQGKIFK

Experiments:
[1] = target: Flag-EEF1A2 (eukaryotic protein translation elongation factor 1α2) (UniProt Q05639); experiment: co-IP; A549 cells transfected with Flag-EEF1A2; immunoprecipitated with Flag monoclonal antibody; partners detected by immunoblotting
[2] = target: EEF1A2-Flag (partner of the Myc-HSP90AB1 truncation fragments) (UniProt Q05639); experiment: co-IP; EEF1A2-Flag and HSP90AB1-Myc truncation mutants (pcDNA3.1(+)) co-transfected into HEK293 cells; called pull-down assay in the text, co-immunoprecipitation in the legend
[3] = target: Flag-tagged EEF1A2 domain I (1–240 aa) (UniProt Q05639); experiment: as above

Substance | binding [1] | also measured
XRCC6 (from UniProt P12956 1-609) | binds | 
HSP90AB1 (from UniProt P08238 1-724) | binds | 
EEF1G (from UniProt P26641 1-437) | binds | 
Myc-HSP90AB1 domain I (1–232 aa) (from UniProt P08238 1-232) (domain or fragment) |  | binding [2]: binds
HSP90AB1-Myc (partner of the Flag-EEF1A2 truncation fragments) (from UniProt P08238 1-724) |  | binding [3]: binds
